# Laboratory results published in the supplement of paper PMC11732987, “Enantioselective OTUD7B fragment discovery through chemoproteomics screening and high-throughput optimisation” (Communications Chemistry, 2025).
# Sequences of proteins named here, by UniProt entry; tags and fusion partners are left off. A change or cut given only in a name is not applied to a line headed by its entry. Residues count along the entry.
# UniProt O60518: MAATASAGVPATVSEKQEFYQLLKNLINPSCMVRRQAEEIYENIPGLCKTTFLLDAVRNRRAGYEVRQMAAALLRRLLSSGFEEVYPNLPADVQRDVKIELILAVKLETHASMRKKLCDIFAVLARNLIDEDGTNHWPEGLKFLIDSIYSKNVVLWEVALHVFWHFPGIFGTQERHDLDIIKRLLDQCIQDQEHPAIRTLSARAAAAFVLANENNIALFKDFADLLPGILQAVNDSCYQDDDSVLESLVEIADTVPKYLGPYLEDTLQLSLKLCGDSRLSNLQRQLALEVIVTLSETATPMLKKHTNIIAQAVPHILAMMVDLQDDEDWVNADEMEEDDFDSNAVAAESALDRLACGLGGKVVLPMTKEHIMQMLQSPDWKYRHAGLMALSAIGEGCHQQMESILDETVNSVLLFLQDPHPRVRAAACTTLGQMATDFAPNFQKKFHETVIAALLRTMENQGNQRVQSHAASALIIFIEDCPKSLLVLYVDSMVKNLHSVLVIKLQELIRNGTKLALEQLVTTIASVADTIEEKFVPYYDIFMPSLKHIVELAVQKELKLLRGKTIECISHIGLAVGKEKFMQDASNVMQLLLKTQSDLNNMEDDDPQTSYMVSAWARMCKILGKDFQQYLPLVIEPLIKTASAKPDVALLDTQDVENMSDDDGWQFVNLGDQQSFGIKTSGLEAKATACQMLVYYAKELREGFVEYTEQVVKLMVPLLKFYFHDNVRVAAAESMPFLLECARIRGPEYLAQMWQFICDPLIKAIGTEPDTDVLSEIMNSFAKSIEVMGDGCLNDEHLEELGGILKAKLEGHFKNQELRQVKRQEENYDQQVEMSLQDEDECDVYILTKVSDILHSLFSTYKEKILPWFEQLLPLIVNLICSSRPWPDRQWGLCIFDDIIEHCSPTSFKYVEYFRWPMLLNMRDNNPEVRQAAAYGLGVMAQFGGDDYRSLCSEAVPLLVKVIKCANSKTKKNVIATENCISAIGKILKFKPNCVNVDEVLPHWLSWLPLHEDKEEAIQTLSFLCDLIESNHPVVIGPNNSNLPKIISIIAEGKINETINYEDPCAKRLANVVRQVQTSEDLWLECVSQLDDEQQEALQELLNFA
# UniProt Q8TEU7, 1393-1415: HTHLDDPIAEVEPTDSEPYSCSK
# UniProt P35251, 101-120: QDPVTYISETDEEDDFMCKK
# UniProt Q5T481: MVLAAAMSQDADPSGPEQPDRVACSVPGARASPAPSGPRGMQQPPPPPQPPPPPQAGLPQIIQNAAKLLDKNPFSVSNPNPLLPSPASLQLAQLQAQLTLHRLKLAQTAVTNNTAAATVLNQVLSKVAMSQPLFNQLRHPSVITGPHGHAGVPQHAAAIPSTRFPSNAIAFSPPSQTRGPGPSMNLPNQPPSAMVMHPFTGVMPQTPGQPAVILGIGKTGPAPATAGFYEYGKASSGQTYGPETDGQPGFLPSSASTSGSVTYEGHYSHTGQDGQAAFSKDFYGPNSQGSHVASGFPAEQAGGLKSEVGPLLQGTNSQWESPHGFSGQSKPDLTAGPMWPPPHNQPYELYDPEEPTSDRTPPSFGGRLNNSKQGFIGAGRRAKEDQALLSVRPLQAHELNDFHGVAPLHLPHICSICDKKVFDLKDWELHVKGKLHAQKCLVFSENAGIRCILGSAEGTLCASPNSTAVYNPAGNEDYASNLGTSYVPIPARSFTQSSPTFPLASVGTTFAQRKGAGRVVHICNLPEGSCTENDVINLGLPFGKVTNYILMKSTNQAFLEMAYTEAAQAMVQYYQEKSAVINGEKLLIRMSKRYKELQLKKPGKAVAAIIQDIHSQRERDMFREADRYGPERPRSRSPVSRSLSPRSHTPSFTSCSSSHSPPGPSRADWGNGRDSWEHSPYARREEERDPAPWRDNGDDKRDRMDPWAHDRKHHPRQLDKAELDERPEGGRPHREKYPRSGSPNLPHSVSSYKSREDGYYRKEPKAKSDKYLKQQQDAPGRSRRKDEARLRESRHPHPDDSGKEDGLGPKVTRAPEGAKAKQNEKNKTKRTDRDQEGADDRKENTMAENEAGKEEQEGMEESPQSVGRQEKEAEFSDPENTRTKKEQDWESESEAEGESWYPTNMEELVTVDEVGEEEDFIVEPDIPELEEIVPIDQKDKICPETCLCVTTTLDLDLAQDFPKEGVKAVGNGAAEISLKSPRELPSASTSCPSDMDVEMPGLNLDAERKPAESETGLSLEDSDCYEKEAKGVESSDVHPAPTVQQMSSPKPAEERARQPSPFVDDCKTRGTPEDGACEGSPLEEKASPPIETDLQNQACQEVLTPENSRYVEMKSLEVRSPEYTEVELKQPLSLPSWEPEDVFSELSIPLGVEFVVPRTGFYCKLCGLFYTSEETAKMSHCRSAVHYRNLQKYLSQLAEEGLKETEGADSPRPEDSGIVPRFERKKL
# UniProt Q99708, 683-702: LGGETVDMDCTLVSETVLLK
# UniProt Q9P0K7: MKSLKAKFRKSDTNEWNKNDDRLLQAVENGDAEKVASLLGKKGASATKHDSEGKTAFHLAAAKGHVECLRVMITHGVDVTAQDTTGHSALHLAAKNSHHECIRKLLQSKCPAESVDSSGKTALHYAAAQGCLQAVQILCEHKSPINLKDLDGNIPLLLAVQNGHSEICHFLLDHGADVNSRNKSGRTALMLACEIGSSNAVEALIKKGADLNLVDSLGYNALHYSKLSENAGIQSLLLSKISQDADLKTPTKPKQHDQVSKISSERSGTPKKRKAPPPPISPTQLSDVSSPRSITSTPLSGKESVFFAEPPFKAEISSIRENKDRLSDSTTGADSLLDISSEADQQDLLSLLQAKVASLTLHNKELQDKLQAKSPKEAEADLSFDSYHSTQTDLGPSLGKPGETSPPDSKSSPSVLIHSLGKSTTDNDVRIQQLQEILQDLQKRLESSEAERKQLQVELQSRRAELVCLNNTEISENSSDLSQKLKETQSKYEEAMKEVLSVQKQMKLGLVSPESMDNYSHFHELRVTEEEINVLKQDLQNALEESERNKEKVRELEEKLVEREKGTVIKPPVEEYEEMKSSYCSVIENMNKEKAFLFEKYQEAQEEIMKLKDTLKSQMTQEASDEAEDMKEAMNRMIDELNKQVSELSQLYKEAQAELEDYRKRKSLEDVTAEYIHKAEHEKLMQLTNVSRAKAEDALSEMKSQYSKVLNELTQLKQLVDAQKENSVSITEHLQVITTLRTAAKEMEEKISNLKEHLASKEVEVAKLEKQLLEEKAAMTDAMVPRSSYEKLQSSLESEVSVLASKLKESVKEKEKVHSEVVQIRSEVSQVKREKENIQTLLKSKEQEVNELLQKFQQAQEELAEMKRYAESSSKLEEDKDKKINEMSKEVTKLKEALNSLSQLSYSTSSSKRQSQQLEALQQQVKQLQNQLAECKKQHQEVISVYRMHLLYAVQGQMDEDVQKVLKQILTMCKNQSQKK
# UniProt P40938: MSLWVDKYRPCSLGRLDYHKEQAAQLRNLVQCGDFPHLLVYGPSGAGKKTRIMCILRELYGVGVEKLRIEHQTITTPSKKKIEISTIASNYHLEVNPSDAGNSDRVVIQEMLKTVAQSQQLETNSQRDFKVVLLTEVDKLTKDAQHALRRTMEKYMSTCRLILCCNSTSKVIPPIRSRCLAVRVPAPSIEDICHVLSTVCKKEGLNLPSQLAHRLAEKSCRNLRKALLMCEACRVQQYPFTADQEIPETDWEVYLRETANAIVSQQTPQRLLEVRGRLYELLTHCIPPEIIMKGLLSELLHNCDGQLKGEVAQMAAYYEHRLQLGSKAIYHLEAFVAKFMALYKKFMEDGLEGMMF
# UniProt Q7Z6E9: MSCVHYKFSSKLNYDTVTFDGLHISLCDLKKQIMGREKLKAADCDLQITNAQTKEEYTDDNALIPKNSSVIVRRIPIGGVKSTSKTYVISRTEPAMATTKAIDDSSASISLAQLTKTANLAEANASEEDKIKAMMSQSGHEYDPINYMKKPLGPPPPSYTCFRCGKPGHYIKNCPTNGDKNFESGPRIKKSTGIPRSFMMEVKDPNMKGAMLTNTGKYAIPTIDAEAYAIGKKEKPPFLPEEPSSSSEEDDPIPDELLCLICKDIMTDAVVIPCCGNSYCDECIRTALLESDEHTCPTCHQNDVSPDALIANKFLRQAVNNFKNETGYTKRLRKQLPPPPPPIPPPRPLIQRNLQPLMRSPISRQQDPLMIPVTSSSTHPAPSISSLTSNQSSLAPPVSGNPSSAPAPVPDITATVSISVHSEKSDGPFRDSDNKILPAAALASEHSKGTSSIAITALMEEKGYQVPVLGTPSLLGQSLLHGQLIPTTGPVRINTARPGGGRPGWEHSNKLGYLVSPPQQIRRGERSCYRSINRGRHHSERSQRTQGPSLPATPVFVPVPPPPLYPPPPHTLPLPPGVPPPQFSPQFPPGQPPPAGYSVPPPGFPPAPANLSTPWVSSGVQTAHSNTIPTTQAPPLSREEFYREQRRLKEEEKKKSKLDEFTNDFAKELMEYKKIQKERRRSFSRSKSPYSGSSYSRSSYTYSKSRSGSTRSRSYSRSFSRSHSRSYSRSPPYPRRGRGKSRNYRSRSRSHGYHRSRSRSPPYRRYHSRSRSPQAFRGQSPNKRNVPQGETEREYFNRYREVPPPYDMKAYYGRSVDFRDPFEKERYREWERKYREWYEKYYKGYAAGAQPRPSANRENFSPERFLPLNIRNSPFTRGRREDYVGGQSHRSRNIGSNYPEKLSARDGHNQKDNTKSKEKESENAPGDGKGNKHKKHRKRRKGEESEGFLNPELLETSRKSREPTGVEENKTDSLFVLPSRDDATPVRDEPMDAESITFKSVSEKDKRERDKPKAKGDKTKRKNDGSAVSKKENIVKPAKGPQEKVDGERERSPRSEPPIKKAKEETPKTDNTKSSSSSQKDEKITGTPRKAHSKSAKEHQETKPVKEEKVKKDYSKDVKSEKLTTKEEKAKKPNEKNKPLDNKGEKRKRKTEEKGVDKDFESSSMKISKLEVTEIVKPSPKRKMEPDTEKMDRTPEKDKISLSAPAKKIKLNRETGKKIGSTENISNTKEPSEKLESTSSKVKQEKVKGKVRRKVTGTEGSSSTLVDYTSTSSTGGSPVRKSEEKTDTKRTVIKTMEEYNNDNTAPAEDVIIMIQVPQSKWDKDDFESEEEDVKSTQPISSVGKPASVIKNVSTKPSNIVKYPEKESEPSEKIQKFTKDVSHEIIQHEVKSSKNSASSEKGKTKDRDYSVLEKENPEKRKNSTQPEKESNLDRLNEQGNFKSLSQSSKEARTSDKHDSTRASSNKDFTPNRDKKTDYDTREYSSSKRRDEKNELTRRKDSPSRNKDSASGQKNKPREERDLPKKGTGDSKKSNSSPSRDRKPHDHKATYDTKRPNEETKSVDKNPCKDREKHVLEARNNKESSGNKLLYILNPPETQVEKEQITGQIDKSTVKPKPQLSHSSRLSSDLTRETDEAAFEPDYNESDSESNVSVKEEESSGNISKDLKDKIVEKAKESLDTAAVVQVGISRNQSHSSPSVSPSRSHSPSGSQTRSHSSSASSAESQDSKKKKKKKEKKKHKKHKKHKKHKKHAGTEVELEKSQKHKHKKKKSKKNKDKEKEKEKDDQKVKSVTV
# UniProt Q5T8P6: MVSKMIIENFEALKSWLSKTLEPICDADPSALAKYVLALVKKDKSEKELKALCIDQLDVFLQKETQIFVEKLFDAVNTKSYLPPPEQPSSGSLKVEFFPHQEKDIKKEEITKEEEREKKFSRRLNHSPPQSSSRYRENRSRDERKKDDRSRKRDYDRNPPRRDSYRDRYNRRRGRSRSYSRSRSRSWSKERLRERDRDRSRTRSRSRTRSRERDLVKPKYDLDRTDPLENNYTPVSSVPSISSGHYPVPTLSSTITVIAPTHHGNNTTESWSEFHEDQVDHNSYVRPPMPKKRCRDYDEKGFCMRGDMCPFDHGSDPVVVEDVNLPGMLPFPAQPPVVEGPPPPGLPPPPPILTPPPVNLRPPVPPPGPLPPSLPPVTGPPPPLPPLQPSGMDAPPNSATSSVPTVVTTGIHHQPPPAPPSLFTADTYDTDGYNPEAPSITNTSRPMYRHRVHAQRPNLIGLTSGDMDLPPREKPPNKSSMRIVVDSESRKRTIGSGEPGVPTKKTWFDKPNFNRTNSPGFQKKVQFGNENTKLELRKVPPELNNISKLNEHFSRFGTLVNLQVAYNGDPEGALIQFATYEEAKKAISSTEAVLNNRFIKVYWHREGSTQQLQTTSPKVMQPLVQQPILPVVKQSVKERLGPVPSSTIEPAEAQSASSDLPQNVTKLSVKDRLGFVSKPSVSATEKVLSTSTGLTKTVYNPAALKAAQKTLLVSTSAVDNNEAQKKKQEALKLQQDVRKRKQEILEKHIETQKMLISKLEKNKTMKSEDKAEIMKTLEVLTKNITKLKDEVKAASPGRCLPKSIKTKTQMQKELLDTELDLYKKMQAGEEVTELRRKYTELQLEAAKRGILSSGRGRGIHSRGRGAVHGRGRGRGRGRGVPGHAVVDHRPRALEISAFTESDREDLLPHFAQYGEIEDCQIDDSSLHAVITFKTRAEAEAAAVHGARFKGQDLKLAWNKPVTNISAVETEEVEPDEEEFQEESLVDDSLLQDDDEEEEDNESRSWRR
# The list shows a part of the results. The data scatter; read single values as rough.
# Compound: ClCC(=O)N[C@H]1CCCc2ccccc12
# Test: log2 mean competition ratio of IA-DTB cysteine labelling (DMSO/compound) (log2 ratio); higher = stronger cysteine engagement by compound
# Details: 50 µM; treatment time: 4 h; cell line lysate: HEK293T
# Procedure: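 IA-DTB competitive cysteine chemoproteomics in HEK293T RIPA lysate. Lysates were treated with compound 29 or 30 at 50 or 200 µM for 4 h, then IA-DTB (500 µM, 1 h), trypsin-digested, NeutrAvidin-enriched and analysed by diaPASEF. Competition ratio = intensity DMSO / intensity compound (n=4 treated, n=64 DMSO); binding: mean log2 CR ≥ 1 and p ≤ 0.05 plus QC filters. Target is the cysteine site.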
row,Target,log2 mean competition ratio
1,RAP1GAP C644 (UniProt P47736),-0.0108
2,RANBP6 C31 (UniProt O60518),0.195
3,RAPGEF6 C93 (UniProt Q8TEU7),0.271
4,RIF1 C1692 (UniProt Q5UIP0),0.000672
5,RB1CC1 C783 (UniProt Q8TDY2),0.014
6,RFC1 C118 (UniProt P35251),0.108
7,RECQL5 C532 (UniProt O94762),-0.147
8,RBM20 C24 (UniProt Q5T481),-0.0397
9,RAPGEF6 C1413 (UniProt Q8TEU7),0.43
10,RHOT2 C543 (UniProt Q8IXI1),0.53
11,RECQL4 C749 (UniProt O94761),0.222
12,RBBP8 C692 (UniProt Q99708),-0.397
13,RAI14 C584 (UniProt Q9P0K7),-0.0329
14,RFC3 C303 (UniProt P40938),-0.457
15,RBL2 C635 (UniProt Q08999),0.036
16,RBM20 C1077 (UniProt Q5T481),0.144
17,RBBP6 C1566 (UniProt Q7Z6E9),-0.018
18,RANBP2 C1335 (UniProt P49792),-0.111
19,RADX C136,0.0179
20,RBM26 C294 (UniProt Q5T8P6),0.0561

# Same assay, conditions: 200 µM; treatment time: 4 h; cell line lysate: HEK293T
row,Target,log2 mean competition ratio
1,RAP1GAP C644 (UniProt P47736),0.204
2,RANBP6 C31 (UniProt O60518),0.233
3,RAPGEF6 C93 (UniProt Q8TEU7),0.0398
4,RIF1 C1692 (UniProt Q5UIP0),0.264
5,RB1CC1 C783 (UniProt Q8TDY2),0.133
6,RFC1 C118 (UniProt P35251),0.268
7,RECQL5 C532 (UniProt O94762),-0.274
8,RBM20 C24 (UniProt Q5T481),0.11
9,RAPGEF6 C1413 (UniProt Q8TEU7),-0.0514
10,RHOT2 C543 (UniProt Q8IXI1),-0.151
11,RECQL4 C749 (UniProt O94761),0.262
12,RBBP8 C692 (UniProt Q99708),-0.0559
13,RAI14 C584 (UniProt Q9P0K7),-0.253
14,RFC3 C303 (UniProt P40938),0.0782
15,RBL2 C635 (UniProt Q08999),-0.0983
16,RBM20 C1077 (UniProt Q5T481),0.117
17,RBBP6 C1566 (UniProt Q7Z6E9),0.125
18,RANBP2 C1335 (UniProt P49792),0.0993
19,RADX C136,-0.108
20,RBM26 C294 (UniProt Q5T8P6),-0.303
